Literature values in US20260373152A1, “CANCER THERAPY COMPRISING 3,5-DISUBSTITUTED BENZENE ALKYNYL COMPOUND AND IMMUNE CHECKPOINT INHIBITOR” (TAIHO PHARMACEUTICAL CO., LTD., priority 2023, published 2026).

Experiments:
Settings in all cases: PTL 2; futibatinib or a salt thereof
FGFR1 = test system: FGFR1
FGFR = test system: FGFR
FGFR3 = test system: FGFR3
FGFR4 = test system: FGFR4

For `C=CC(=O)N1CC[C@H](n2nc(C#Cc3cc(OC)cc(OC)c3)c3c(N)ncnc32)C1` [futibatinib, (S)-1-(3-(4-amino-3-((3,5-dimethoxyphenyl)ethynyl)-1H-pyrazolo[3,4-d]pyrimidin-1-yl)pyrrolidin-1-yl)prop-2-en-1-one], the “inhibition of FGFR1 phosphorylation of tyrosine in the substrate peptide sequence” value (FGFR1) is listed as “inhibits”, the FGFR inhibitory effect (FGFR) is listed as “excellent FGFR inhibitory effect” and the “inhibition of FGFR3 phosphorylation of tyrosine in the substrate peptide sequence” value (FGFR3) is listed as “inhibits”. For the same compound, the “inhibition of FGFR4 phosphorylation of tyrosine in the substrate peptide sequence” value (FGFR4) was “inhibits”.
